Laboratory results as given in publication PMC7878476.
These are yes or no findings as the source states them, for the method shown.

By UniProt entry, the sequences of proteins in these tests, tags left out. Residues count along the entry.
UniProt Q8NHS0, residues 1-82: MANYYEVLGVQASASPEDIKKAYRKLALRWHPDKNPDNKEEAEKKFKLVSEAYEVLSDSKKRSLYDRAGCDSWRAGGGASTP

Key:
[1] = target: isolated J-domain of DnaJB8, JD_(1–82) (human) (UniProt Q8NHS0); assay: SEC-MALS; Superdex 200 Increase 10/300 in 1× PBS with 1 mM TCEP, 0.5 mL/min; 5.1, 5.0 and 6.6 mg/mL loaded for DnaJB8F→S, JD and CTD; both purified
[2] = target: isolated J-domain of DnaJB8, JD_(1–82) (human) (UniProt Q8NHS0); assay: cross-linking; single recombinant proteins (100 μM) in 1× PBS, 37 °C, 30 min, ADH/DMTMM or DSS; SDS-PAGE and XL–MS; both purified

- binding [1]: no binding (tested: 5.0 mg/mL)
- binding [2]: no binding (tested: 100 μM)
Substance: isolated J-domain of DnaJB8, JD_(1–82) (from UniProt Q8NHS0 1-82) (domain or fragment)
